Taken from: PubChem BioAssay AID652259 (Drosophila RNAi Screening Center, 2013)

Test: 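Identify new Wingless signalling regulators in fly cells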 (primary screen)
Cells: Drosophila clone 8 imaginal disc epithelial cells
Reagents: long dsRNA against Drosophila genes
Conditions: pathway stimulated by co-transfected Wingless expression plasmid
Read-out: 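Dual luciferase reads per well after Wingless plasmid stimulation: reporter firefly light and Renilla control light; activity is firefly divided by Renilla, a ratio not deposited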
Scale: firefly reporter light: higher = more Wg reporter light, before normalisation; Renilla control light: higher = more transfected or surviving cells
Active means: 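a knock-down is a candidate when at least two out of four statistical tests show it departing from its plate mean; one test alone signals a weak candidate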
Meaning of the calls: active = candidate regulator (raises or lowers reporter); inactive = not a candidate
In all, the deposit lists about 22,000 reagents; this is an unselected part of those with a known target gene and a result. In the full data, 233 (1.1%) are marked active. 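Light values are raw, unnormalised plate reads; the ratio scores behind the reporter calls were not deposited.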 Names joined by + are all predicted targets of the reagent. Not given: the amount of reagent, the time to read-out, the dose of the treatment.

| Target gene | dsRNA | firefly reporter light, replicate 1 | firefly reporter light, replicate 2 | Renilla control light, replicate 1 | Renilla control light, replicate 2 | outcome |
| --- | --- | --- | --- | --- | --- | --- |
| CG13436 | DRSC06396 | 3633 | – | 2611 | – | inactive |
| CG6067 | DRSC18399 | 12826 | – | 6601 | – | inactive |
| CG5114 | DRSC10482 | 8125 | – | 3875 | – | inactive |
| CG33966 | DRSC08256 | 4964 | – | 2304 | – | inactive |
| CG4806 | DRSC04491 | 2330 | 4426 | 688 | 1382 | inactive |
| CG6726 | DRSC16101 | 18064 | – | 13040 | – | inactive |
| Uhg2 + snoRNA:Me18S-G1620 + snoRNA:U14:30Ea | DRSC01100 | 13888 | – | 9824 | – | inactive |
| Cyp310a1 | DRSC03301 | 9024 | – | 3340 | – | inactive |
| Cyp9b2 | DRSC07390 | 2365 | 3996 | 483 | 1944 | inactive |
| wa-cup | DRSC12511 | 14166 | – | 3664 | – | inactive |
| Elp5 | DRSC08547 | 4743 | – | 2125 | – | inactive |
| CG7546 | DRSC08885 | 2402 | – | 741 | – | inactive |
| CG7546 | DRSC10871 | 10346 | – | 3297 | – | inactive |
| CG7546 | DRSC22148 | 7.28e5 | 7.14e5 | 3.17e5 | 3.04e5 | inactive |
| CG12910 | DRSC06225 | 5923 | – | 1997 | – | inactive |
| OS9 + Hf | DRSC03392 | 6352 | – | 2128 | – | inactive |
| Pnn | DRSC16415 | 10539 | – | 3491 | – | inactive |
| Bin1 | DRSC16843 | 17315 | – | 3898 | – | inactive |
| SCCRO4 | DRSC10671 | 15392 | – | 6624 | – | inactive |
| CG15539 | DRSC15075 | 8294 | – | 3003 | – | inactive |
| caup | DRSC11334 | 6464 | – | 1305 | – | inactive |
| Hip1 | DRSC09812 | 4820 | – | 2320 | – | inactive |
| Mppe | DRSC07296 | 6128 | – | 2192 | – | inactive |
| fzr2 | DRSC04280 | 13932 | – | 4071 | – | inactive |
| pr | DRSC03596 | 11251 | – | 3762 | – | inactive |
| Cndp2 | DRSC04873 | 1954 | 2921 | 528 | 1449 | inactive |
| cactin | DRSC20576 | 15156 | – | 7138 | – | inactive |
| svr | DRSC17293 | 2534 | – | 937 | – | inactive |
| svr | DRSC18841 | 31712 | – | 23144 | – | inactive |
| Atpalpha | DRSC14119 | 3740 | 5843 | 1497 | 1693 | inactive |
| Lsm11 | DRSC06238 | 4369 | 9318 | 1024 | 4203 | inactive |
| ICA69 | DRSC11621 | 5600 | – | 2438 | – | inactive |
| Dsor1 | DRSC18462 | 3725 | 5815 | 728 | 1408 | inactive |
| CG1663 | DRSC06613 | 6000 | 11725 | 1552 | 5283 | inactive |
| CG1663 | DRSC22488 | 7.24e5 | 7.37e5 | 3.03e5 | 2.74e5 | inactive |
| Adk1 | DRSC15514 | 13654 | – | 4663 | – | inactive |
| CG7785 | DRSC16311 | 11716 | – | 2998 | – | inactive |
| EndoG | DRSC07292 | 11655 | – | 4022 | – | inactive |
| EndoG | DRSC22746 | 8.02e5 | 6.78e5 | 3.22e5 | 14389 | inactive |
| Vav | DRSC20384 | 24716 | – | 10232 | – | inactive |
| l(3)mbt | DRSC16983 | 2918 | 3707 | 1221 | 1003 | inactive |
| Cand1 | DRSC01992 | 7435 | – | 2099 | – | inactive |
| Pfdn1 | DRSC02325 | 2544 | 7801 | 816 | 2619 | inactive |
| CG8172 | DRSC07089 | 4487 | 8849 | 1769 | 5229 | inactive |
| CG8172 | DRSC22113 | 6.91e5 | 6.95e5 | 2.46e5 | 2.47e5 | inactive |
| CG8087 | DRSC16375 | 13657 | – | 4203 | – | inactive |
| CG7781 | DRSC03068 | 3232 | 7811 | 1416 | 2893 | inactive |
| CG9582 | DRSC03267 | 1540 | 4244 | 688 | 2449 | inactive |
| abs | DRSC12372 | 7788 | – | 2696 | – | inactive |
| CG31437 | DRSC13711 | 3621 | – | 1705 | – | inactive |
| CG17698 | DRSC11907 | 11746 | – | 5692 | – | inactive |
| CG32240 | DRSC08093 | 3133 | – | 1783 | – | inactive |
| CG14340 | DRSC00370 | 2696 | 7735 | 816 | 2592 | inactive |
| Osi16 | DRSC12135 | 8264 | – | 1632 | – | inactive |
| Osi16 | DRSC21323 | 5.32e5 | 6.36e5 | 2.88e5 | 2.73e5 | inactive |
| CG12506 | DRSC00347 | 2820 | 7744 | 1280 | 2992 | inactive |
| capt | DRSC00676 | 1722 | 7110 | 693 | 2160 | inactive |
| capt | DRSC00806 | 1526 | 7495 | 725 | 2407 | inactive |
| CG30440 | DRSC04775 | 21634 | – | 10704 | – | inactive |
| CG30440 | DRSC04845 | 2385 | 9104 | 872 | 2531 | inactive |
| CG30440 | DRSC04855 | 3200 | 10297 | 677 | 1872 | inactive |
| CG10710 | DRSC09784 | 4933 | – | 2116 | – | inactive |
| CG5612 | DRSC15844 | 8192 | – | 3324 | – | inactive |
| CG33655 | DRSC03858 | 15462 | – | 8528 | – | inactive |
| Caf1-105 | DRSC06209 | 2645 | 8674 | 556 | 2557 | inactive |
| PGRP-LD + Cralbp + Pmi | DRSC09743 | 1927 | 6240 | 1954 | 3188 | inactive |
| CG13231 | DRSC06351 | 7623 | – | 5315 | – | inactive |
| CG4712 | DRSC06882 | 8752 | – | 3898 | – | inactive |
| Cmtr1 | DRSC18400 | 15384 | – | 7853 | – | inactive |
| CG32808 | DRSC17689 | 4299 | – | 1698 | – | inactive |
| Eaf | DRSC05050 | 23622 | – | 5382 | – | inactive |
| Eaf | DRSC06052 | 21800 | – | 8183 | – | inactive |
| Eaf | DRSC22028 | 4.83e5 | 4.48e5 | 1.75e5 | 2.08e5 | inactive |
